From patent US20150246004A1, “TRANSDERMAL DELIVERY DEVICE AND METHOD” (QuikMed Pty Ltd, priority 2008, published 2015)
Where a name gives a salt, the structure may show the parent alone. Read-outs that look alike come from different tables or passages of the source.

Experiments:
[1] = test system: skin of the deltoid region
[2] = test system: skin of the inner left forearm; settings: 500 μL of 2% solution, pad applied 15 minutes
[3] = test system: person's skin; settings: device 10, lidocaine approx 2% in water
[4] = test system: skin of the deltoid region; settings: for pain rating on a pain scale from 1-10 during infiltration of Xylocaine: 2 ml 1% Xylocaine intradermally
[5] = test system: skin of the forearm; settings: 500 μL in pad, 10 minutes application, 25 g needle
[6] = Trial B: 0.5 ml of 2% saturated solution in distilled water, left deltoid, 10 minutes
[7] = Trial D: 0.5 ml of 2% solution in saline, right deltoid, 15 minutes

| SMILES | depth of needle insertion ([1]; Trial A: 0.5 ml saturated solution (approx 2%) in distilled water, left deltoid, ten minutes, full length of needle shaft, no pain) [mm] | pain felt on needle insertion ([1]; Trial A: 0.5 ml saturated solution in distilled water, left deltoid, ten minutes, needle to 25 mm) | area of the skin anaesthetized, distance from the pad perimeter ([2]; after 10 minutes, prick test to around 1 mm) [cm] | area of the skin anaesthetized, distance from the pad ([2]; after 20 minutes, prick test to around 1 mm) [cm] | anaesthetic effect in prick test ([2]; after 30 minutes) | time until anaesthesia is sufficiently induced after application of the pad [3] [min] | time until anaesthetic effect is substantially lost after removal of the pad [3] [min] | pain felt during infiltration of Xylocaine [4, 6] | pain rating on a pain scale from 1-10 during infiltration of Xylocaine [4, 6] | result of needle insertion into treated site ([5]; volunteer 2, forearm) | depth of needle insertion before marginal pain was felt ([1]; Trial C: 0.5 ml of 2% solution in saline, right deltoid, 15 minutes) | pain felt during infiltration of Xylocaine [4, 7] | pain rating on a pain scale from 1-10 during infiltration of Xylocaine [4, 7] | result of needle insertion into treated site ([5]; volunteer 1, forearm) | result of needle insertion into treated site ([5]; volunteer 2, forearm, hydrochloride) |
| --- | --- | --- | --- | --- | --- | --- | --- | --- | --- | --- | --- | --- | --- | --- | --- |
| CCN(CC)CC(=O)Nc1c(C)cccc1C [lidocaine base, lidocaine] | 25 | did not feel any pain | 1 | 2.5 | the anaesthetic effect was lost | ≤ 15 | ≤ 40 | No pain was felt | 1 | able to be inserted into the dermis before irritation was perceived |  |  |  |  |  |
| CCN(CC)CC(=O)Nc1c(C)cccc1C [lidocaine hydrochloride] |  |  |  |  |  |  |  |  |  |  | approximately 15 mm | Marginal pain was felt | 3-4 | immediate needle prick pain and no insertion was performed | immediate needle prick pain and no insertion was performed |
